Values from PubChem BioAssay AID1259405 (NCATS, 2018)
This is an unselected part of about 50,000 reagents. About 4,000 of them (8%) count as active. 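Mouse siRNA library applied to hamster cells; one well for each siRNA.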 Entries without a mark were called inactive. The numbers tell different reagents against one gene apart.

Purpose: 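Knock-downs that lift recombinant protein yield in hamster ovary cells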 (primary screen)
System: Chinese hamster CHO-K1 ovary cells with stable secreted eGFP expression
Reagent: single siRNA against mouse genes, 0.8 pmol siRNA per well (2 µl of 400 nM stock)
Duration: 3 days
Measurement: 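Percent of the per-plate non-targeting control median for intracellular GFP per well by laser scanning cytometry and for cell viability by ATP luminescence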
Reading the numbers: GFP, % of control: higher = more GFP per well, higher productivity; viability (ATP), % of control: higher = more viable cells (more ATP)
Active means: 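a knock-down is called active if GFP reaches 120% or more of non-targeting control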

The first 4 entries, ahead of the listing:
Or10j2 #1 → GFP, % of control = 218 (active); viability (ATP), % of control = 106
Or10j2 #2 → GFP, % of control = 70.3; viability (ATP), % of control = 61
Or10j2 #3 → GFP, % of control = 37.8; viability (ATP), % of control = 42.8
Ddah2 #1 → GFP, % of control = 96.9; viability (ATP), % of control = 53.1

The list itself, repeating the preview:
Or10j2 #1 → GFP, % of control = 218 (active); viability (ATP), % of control = 106
Or10j2 #2 → GFP, % of control = 70.3; viability (ATP), % of control = 61
Or10j2 #3 → GFP, % of control = 37.8; viability (ATP), % of control = 42.8
Ddah2 #1 → GFP, % of control = 96.9; viability (ATP), % of control = 53.1
Ddah2 #2 → GFP, % of control = 76.6; viability (ATP), % of control = 80.5
Ddah2 #3 → GFP, % of control = 81.5; viability (ATP), % of control = 45.2
Or52j3 #1 → GFP, % of control = 98.8; viability (ATP), % of control = 84.5
Or52j3 #2 → GFP, % of control = 131 (active); viability (ATP), % of control = 69.8
Or52j3 #3 → GFP, % of control = 43.1; viability (ATP), % of control = 75.9
Shisa2 #1 → GFP, % of control = 53.4; viability (ATP), % of control = 44.3
Shisa2 #2 → GFP, % of control = 62; viability (ATP), % of control = 56.5
Shisa2 #3 → GFP, % of control = 121 (active); viability (ATP), % of control = 130
Pcm1 #1 → GFP, % of control = 69.6; viability (ATP), % of control = 58
Pcm1 #2 → GFP, % of control = 97.1; viability (ATP), % of control = 46.1
Lmtk3 → GFP, % of control = 111; viability (ATP), % of control = 103
Camp #1 → GFP, % of control = 120 (active); viability (ATP), % of control = 131
Camp #2 → GFP, % of control = 61.2; viability (ATP), % of control = 68.3
Or2w25 #1 → GFP, % of control = 49.1; viability (ATP), % of control = 57.9
Or2w25 #2 → GFP, % of control = 53; viability (ATP), % of control = 69.9
Or2w25 #3 → GFP, % of control = 53.2; viability (ATP), % of control = 98.7
Vmn1r192 #1 → GFP, % of control = 39.5; viability (ATP), % of control = 39
Vmn1r192 #2 → GFP, % of control = 118; viability (ATP), % of control = 51.9
Vmn1r192 #3 → GFP, % of control = 90.9; viability (ATP), % of control = 85.1
Gpnmb #1 → GFP, % of control = 67.4; viability (ATP), % of control = 68.7
Gpnmb #2 → GFP, % of control = 145 (active); viability (ATP), % of control = 90.2
Gpnmb #3 → GFP, % of control = 84; viability (ATP), % of control = 96.1
Kdelr2 #1 → GFP, % of control = 64; viability (ATP), % of control = 87.8
Kdelr2 #2 → GFP, % of control = 78.8; viability (ATP), % of control = 66.3
Rack1 #1 → GFP, % of control = 54.5; viability (ATP), % of control = 66.7
Rack1 #2 → GFP, % of control = 126 (active); viability (ATP), % of control = 90.1
Rack1 #3 → GFP, % of control = 76.6; viability (ATP), % of control = 69.2
Ndufb5 #1 → GFP, % of control = 93; viability (ATP), % of control = 66.9
Ndufb5 #2 → GFP, % of control = 98.2; viability (ATP), % of control = 96.6
Ndufb5 #3 → GFP, % of control = 55.9; viability (ATP), % of control = 77.2
Rab11fip3 #1 → GFP, % of control = 99.7; viability (ATP), % of control = 101
Rab11fip3 #2 → GFP, % of control = 77.4; viability (ATP), % of control = 82.6
Rab11fip3 #3 → GFP, % of control = 80.7; viability (ATP), % of control = 110
D5Ertd579e #1 → GFP, % of control = 91.3; viability (ATP), % of control = 92.7
D5Ertd579e #2 → GFP, % of control = 82.5; viability (ATP), % of control = 98.2
D5Ertd579e #3 → GFP, % of control = 101; viability (ATP), % of control = 101
